# Results published in patent US4414332A (Boehringer Mannheim GmbH, priority 1980, dated 1983).
# By UniProt entry, the sequences of proteins in these tests, tags left out. Where a name states a change or a piece, a line headed by the entry shows the natural chain unless it says otherwise.
# UniProt Q7M135: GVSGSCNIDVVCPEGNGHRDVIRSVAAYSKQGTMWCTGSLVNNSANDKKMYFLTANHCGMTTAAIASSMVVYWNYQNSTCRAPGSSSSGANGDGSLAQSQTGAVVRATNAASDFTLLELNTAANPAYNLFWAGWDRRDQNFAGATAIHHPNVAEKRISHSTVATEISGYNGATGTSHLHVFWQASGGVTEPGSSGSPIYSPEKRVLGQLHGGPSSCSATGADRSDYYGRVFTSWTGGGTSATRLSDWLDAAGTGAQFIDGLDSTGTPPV
# For at least one compound, name, drawing or mass did not settle the structure. Peptide text beside a SMILES is read from it.
# Biological target: T1, endoproteinase Lys-C (Lysobacter enzymogenes, UniProt Q7M135)
# T1 construct: consists of a chain of molecular weight 35000 to 38000 Dalton; made in house
# Assay: Substrate specificity of endoproteinase Lys-C (breakdown of substrates)
# Type: biochemical, Lysobacter enzymogenes ssp. enzymogenes
smiles,measurement,value
"CCOC(=O)[C@H](Cc1ccc(O)cc1)NC(=O)[C@@H](N)CCCNC(=N)N [ATEE, arginyltyrosyl ethyl ester] (H-Arg-Tyr-OEt)",breakdown by endoproteinase Lys-C,-
